Screening data, single-dose tests

The chains behind the UniProt entries cited, without tags or fusion partners. Residues count along the entry.
UniProt P9WPC5, whole entry: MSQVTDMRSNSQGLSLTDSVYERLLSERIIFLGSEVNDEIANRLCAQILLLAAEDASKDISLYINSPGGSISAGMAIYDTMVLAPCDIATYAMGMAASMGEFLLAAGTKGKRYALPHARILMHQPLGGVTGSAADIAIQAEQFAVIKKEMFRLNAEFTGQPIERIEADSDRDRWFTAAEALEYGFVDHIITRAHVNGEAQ
UniProt P9WPC3, whole entry partner: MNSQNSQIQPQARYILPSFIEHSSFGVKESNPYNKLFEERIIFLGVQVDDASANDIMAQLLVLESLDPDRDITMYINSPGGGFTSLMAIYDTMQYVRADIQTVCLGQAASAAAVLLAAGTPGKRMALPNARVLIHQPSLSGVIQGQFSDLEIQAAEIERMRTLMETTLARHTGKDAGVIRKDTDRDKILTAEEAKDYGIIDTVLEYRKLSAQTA
UniProt I6X8D2, whole entry: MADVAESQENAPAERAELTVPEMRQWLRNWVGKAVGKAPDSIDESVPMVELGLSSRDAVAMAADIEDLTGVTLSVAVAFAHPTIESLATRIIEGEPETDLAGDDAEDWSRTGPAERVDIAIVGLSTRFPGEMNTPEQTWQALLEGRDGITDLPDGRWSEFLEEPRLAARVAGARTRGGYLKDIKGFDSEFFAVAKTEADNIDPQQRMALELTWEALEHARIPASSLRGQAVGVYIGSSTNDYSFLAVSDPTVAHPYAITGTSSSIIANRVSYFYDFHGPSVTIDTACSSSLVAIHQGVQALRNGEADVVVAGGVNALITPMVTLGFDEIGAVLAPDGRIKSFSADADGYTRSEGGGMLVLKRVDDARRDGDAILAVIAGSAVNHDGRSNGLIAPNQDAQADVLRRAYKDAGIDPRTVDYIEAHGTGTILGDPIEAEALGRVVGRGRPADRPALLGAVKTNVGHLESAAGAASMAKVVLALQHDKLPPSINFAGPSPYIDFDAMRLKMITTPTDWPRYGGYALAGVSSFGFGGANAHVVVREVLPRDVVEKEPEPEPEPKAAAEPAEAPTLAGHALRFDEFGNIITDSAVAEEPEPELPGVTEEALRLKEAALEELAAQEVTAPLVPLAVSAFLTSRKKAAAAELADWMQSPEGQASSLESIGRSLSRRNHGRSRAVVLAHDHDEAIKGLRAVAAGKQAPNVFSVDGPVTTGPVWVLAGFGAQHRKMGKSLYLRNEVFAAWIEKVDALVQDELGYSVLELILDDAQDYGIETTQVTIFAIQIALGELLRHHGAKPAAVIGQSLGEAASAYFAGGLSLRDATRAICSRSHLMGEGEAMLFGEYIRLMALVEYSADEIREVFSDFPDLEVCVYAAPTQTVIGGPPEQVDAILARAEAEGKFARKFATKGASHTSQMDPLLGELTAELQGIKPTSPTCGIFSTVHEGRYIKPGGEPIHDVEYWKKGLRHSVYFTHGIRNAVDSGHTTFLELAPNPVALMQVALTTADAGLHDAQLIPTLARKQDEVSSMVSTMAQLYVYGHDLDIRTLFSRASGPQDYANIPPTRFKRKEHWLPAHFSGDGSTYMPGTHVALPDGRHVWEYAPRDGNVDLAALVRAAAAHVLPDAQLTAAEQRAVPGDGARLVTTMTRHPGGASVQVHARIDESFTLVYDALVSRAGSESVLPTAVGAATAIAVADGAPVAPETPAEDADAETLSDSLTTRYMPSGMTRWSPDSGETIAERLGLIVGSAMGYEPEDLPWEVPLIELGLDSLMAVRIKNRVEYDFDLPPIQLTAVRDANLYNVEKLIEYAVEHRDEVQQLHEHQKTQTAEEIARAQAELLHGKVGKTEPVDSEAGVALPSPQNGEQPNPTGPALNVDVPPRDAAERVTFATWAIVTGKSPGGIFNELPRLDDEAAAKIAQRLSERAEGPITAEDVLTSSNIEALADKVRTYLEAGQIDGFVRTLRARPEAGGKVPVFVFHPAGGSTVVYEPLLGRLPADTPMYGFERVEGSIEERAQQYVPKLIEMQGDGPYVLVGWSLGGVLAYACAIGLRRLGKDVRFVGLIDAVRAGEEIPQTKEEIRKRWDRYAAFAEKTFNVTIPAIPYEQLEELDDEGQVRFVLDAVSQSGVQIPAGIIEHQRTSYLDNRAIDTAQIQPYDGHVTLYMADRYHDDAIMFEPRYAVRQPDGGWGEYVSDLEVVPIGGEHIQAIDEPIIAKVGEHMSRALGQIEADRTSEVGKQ
UniProt Q8IDJ8, 1-583: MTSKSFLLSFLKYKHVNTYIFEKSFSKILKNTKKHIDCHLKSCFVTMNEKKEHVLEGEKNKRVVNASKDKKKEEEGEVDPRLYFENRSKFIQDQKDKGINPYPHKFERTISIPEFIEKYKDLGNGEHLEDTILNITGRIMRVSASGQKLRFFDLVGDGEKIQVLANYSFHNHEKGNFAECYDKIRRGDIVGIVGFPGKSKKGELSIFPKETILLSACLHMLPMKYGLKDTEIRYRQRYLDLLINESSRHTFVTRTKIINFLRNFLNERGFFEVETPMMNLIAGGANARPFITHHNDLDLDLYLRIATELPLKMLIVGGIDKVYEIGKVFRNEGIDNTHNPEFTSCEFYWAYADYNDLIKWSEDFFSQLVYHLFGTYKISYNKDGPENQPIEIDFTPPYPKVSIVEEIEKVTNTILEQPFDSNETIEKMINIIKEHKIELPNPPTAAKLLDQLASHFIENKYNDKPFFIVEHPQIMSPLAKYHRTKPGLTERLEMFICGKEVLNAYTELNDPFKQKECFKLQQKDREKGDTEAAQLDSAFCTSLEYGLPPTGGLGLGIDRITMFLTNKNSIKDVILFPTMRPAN

From ChEMBL document CHEMBL3988442, “University of Dundee, Small-Polar-MMV Screening Library” (2021).

A: 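Protease assay of ClpP1P2, read by the AMC dye that it sets free. Target: ClpP1P2, Mycobacterium tuberculosis (UniProt P9WPC5 and UniProt P9WPC3). Tested at 50 µM. Direction is inferred from only a few compounds that gave an IC50; most scored high, so higher reads as stronger inhibition. Most other retested compounds had strongly negative values. About 69,000 compounds were tested under these conditions; 0.015% (about 10) showed 50% or more at least once.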
B: 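Cell assay of Leishmania donovani living inside macrophages; the read-out is not stated. Concentration: 30 µM. The record gives no direction; compounds that gave an IC50 in retests scored well above the rest, so higher reads as stronger inhibition. Size under these conditions: about 69,000 compounds, about 1,000 of them at 50% or above in at least one test.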
C: 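Polyketide synthase Pks13, Mycobacterium tuberculosis (UniProt I6X8D2). Enzyme assay of the thioesterase domain of polyketide synthase 13; the read-out is not stated. Compounds at 30 µM. The record gives no direction; the compounds picked for IC50 retests had high values, so higher reads as stronger inhibition. Of about 67,000 compounds tested this way, about 300 (0.46%) reached 50% or more in at least one test.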
D: 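Lysine-tRNA ligase, Plasmodium falciparum 3D7 (UniProt Q8IDJ8). Enzyme assay of the cytosolic lysyl-tRNA synthetase in 384-well plates, read by luminescence. Concentration: 30 µM. Direction is inferred from only a few compounds that gave an IC50; most scored high, so higher reads as stronger inhibition. About 69,000 compounds were tested under these conditions; 0.071% (about 49) showed 50% or more at least once.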
E: 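Assay of Toxoplasma gondii numbers, read through their beta-galactosidase reporter with a colour substrate. Tested at 10 µM. Higher reads as fewer parasites (inferred from which compounds were picked for retests). Size under these conditions: about 67,000 compounds, about 260 of them at 50% or above in at least one test.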

The filed quantity is “Percent Effect” (%). The controls that fix the scale are not given in the record; negative values are as filed. Compounds were drawn at random from those tested, without regard to their results. Two or more numbers in one place are separate tests of the same structure; such repeats can differ widely. A dash means the value is not listed here; it may have been measured.

compound	A	B	C	D	E
CC(C)c1nc(C2CCCN(C(=O)CCc3cscn3)C2)no1 (stereo not drawn)	-8.996	12.46	-7.048	-0.9329	-0.1903
CN(C)C(=O)COCc1cncc2c1CCN(C1CCOCC1)C2.O=C(O)C(F)(F)F.O=C(O)C(F)(F)F	-	24.75	-	-	8.973
Cc1nc(CC(C)C)cc(C(=O)N2C[C@@H](CN(C)C)[C@@H](CO)C2)n1	1.196	34.63	6.027	2.98	5.41
Cc1noc(C)c1CN(C)C(=O)C1CCN(S(N)(=O)=O)CC1	-8.294	15.9	0.3217	1.605	-57.79
CC(NC(=O)Cn1cc(-c2ccccc2)cn1)C1CC1 (stereo not drawn)	11.6	12.08	-15.38	1.419	-12.85
CN(C)C(=O)N1CCC[C@]2(C(=O)N(C)C)CN(c3ccccn3)C[C@@H]2C1	-16.05	-	-16.59	-0.04718	-
CN(Cc1nnc(-c2ccco2)o1)C(C(N)=O)c1cccc(F)c1 (stereo not drawn)	-9.473	6.014 and -0.116	-3.207	8.869	-3.108
COc1ccc(-n2ccnc2-c2cnc(N(C)C)nc2)cc1OC	7.473	25.02	-22.48	-0.111	8.042
CS(=O)(=O)N[C@H]1CCO[C@]2(CCN(CC3CCOCC3)C2)C1	14.52	-	-13.26	3.645	-
CS(=O)(=O)NCC1CCCN(C(=O)COc2ccc(F)cc2)C1 (stereo not drawn)	25.64	36.74	-10.16	4.501	4.135
O=C(O)C(F)(F)F.[H][C@@]12COC[C@]1(COCC(=O)N(C)C)CN(CC1CCC1)C2	-	3.488	-	-	0.2658
CN1CCC(N[C@@H]2CO[C@H](CNC(=O)c3cccs3)[C@H]2O)CC1	-5.326	20.05	-24.13	3.926	11.76
CCc1ncnc2c1CCN(S(=O)(=O)c1ccccc1)CC2	10.69	21.82	-2.996	3.271	5.724
CNC(=O)c1cnc(C)nc1CCNC(=O)CCc1ccccc1	0.5916	-18.66	-8.769	-0.9155	6.831
Cc1nc(NC2CCCC2)cc(C2CCN2C(=O)c2ccccn2)n1 (stereo not drawn)	-6.414	5.706 and -7.292	8.134	3.389	7.105
CC(=O)N1CCCN(C(=O)Cc2c(C)nc(C)[nH]c2=O)CC1	-10.93	4.118	9.122	3.067	5.434
O=C(CCCNc1ncccn1)N1CCCC(n2cccn2)C1 (stereo not drawn)	0.8639	-2.969	-14.97	-3.484	-14.34
CCN1CCc2[nH]cnc2C12CCN(c1ccc(Cl)cn1)CC2	8.43	24.88	-9.9	-0.3329	-18.26
CC(C)C(=O)N1CCC(C)(c2cc(O)[nH]n2)CC1	-7.857	-44.02	-	-2.868	-3.488
[H][C@@]12C[C@H](C(=O)N3CCCC3)[C@@]([H])(CN(C(=O)NC(C)C)C1)O2	-	42	-	-	19.19
Cc1cc(Br)c(O)c(-c2nc(N3CCOCC3)sc2C)c1	3.886	14.66	9.915	2.126	1.566
c1cc2c(cc1C[C@@H]1CC[C@H](CN3CCCOCC3)O1)OCO2	-9.408	18.2	-22.1	1.343	13.39
COCC(=O)N1CCC2(CC1)NC(=O)c1ccccc12.Cl	-	-0.9848	-	-	0.7012
Cc1nn(-c2ccccc2)c(C)c1CC(=O)NC1CC(=O)N(C)C1 (stereo not drawn)	1.46	30	2.204	3.224	-10.63
Cn1cnc2c1C(COCc1ccccc1)N(Cc1ccccn1)CC2 (stereo not drawn)	-5.707	-	-31.05	4.27	-
Cc1cnn(CC2CCCN2Cc2nc3ccccc3n2C)c1 (stereo not drawn)	-27.86	34.21	-43.74	6.151	-
Cc1ccc(C)c(NC(=O)Cn2cc(I)cn2)c1	-12.77	3.866 and 6.076	0.9801	0.3041	5.427
COC(=O)c1cc(C(=O)N2CCCC(C)C2)n(-c2ccccc2)n1 (stereo not drawn)	-19.03	18.53	-9.656	-0.4602	-12.89
Cc1cccc(Oc2ccccc2CNC(=O)C2CCNC(=O)C2)c1 (stereo not drawn)	-2.164	-1.949	-16.85	-4.576	-12.43
COc1cc(CNC(=O)CNc2cc(Cl)ccc2OC)ccn1	4.232	25	-11.18	2.553	1.666
CC(C)c1ncc2c(n1)CN(c1ncnc3[nH]ccc13)CC2	-7.936	-9.805	8.397	-3.608	-6.156
Cl.c1cc(CNCc2ccc(Cn3cncn3)cc2)c2c(c1)OCCO2	-	24.79	-	-	-
Cc1cc(NC(=O)NC2CCCc3c2cnn3CCO)n(C)n1 (stereo not drawn)	6.127	-4.938	-8.555	7.319	5.465
CC1(C)CN(Cc2ccncc2)CCS1(=O)=O	-6.452	-12.66	5.382	-4.127	-8.149
CC(C)CNC(=O)N1CC[C@@H]2CN(Cc3cccnc3)S(=O)(=O)[C@@H]2CC1	15.86	-	-16.33	1.542	-
CCOCCN1CCN(CCOC)CC1C (stereo not drawn)	-9.021	-4.258	-0.09319	0.782	6.109
CN(Cc1cnn(C)c1)S(=O)(=O)N1CCCCC1	-1.495	4.104	-26.02	6.99	8.613
Cc1cccn2c(=O)cc(OC(=O)c3ccccc3)nc12	-0.8609	-11.06	-18.49	3.239	-5.279
COc1cccc2c1OCC(C(=O)N1CCN(CCS(C)(=O)=O)CC1)C2 (stereo not drawn)	-0.7899	2.664	-8.346	5.92	-10.54

The first 4 entries again:

* CC(C)c1nc(C2CCCN(C(=O)CCc3cscn3)C2)no1 (stereo not drawn) | A: -8.996%; B: 12.46%; C: -7.048%; D: -0.9329%; E: -0.1903%
* CN(C)C(=O)COCc1cncc2c1CCN(C1CCOCC1)C2.O=C(O)C(F)(F)F.O=C(O)C(F)(F)F | B: 24.75%; E: 8.973%
* Cc1nc(CC(C)C)cc(C(=O)N2C[C@@H](CN(C)C)[C@@H](CO)C2)n1 | A: 1.196%; B: 34.63%; C: 6.027%; D: 2.98%; E: 5.41%
* Cc1noc(C)c1CN(C)C(=O)C1CCN(S(N)(=O)=O)CC1 | A: -8.294%; B: 15.9%; C: 0.3217%; D: 1.605%; E: -57.79%